Data from the supplement of paper PMC6078165.
The reference is the same well before dosing, and untreated signal decays as well.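 The cancer cells are triple-negative breast cancer lines of basal-like or mesenchymal-like type, grown without fibroblasts. A drop in red signal reflects loss of mitochondrial integrity, a stand-in for apoptotic death.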

Assays:
HCC1143 = assay: relative JC-1 red fluorescence (viability) vs pre-drug, monoculture (fraction); higher = more viable cancer cells; details: coculture fibroblast: none (monoculture)
Procedure: (§1)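 JC-1 labelled TNBC cells grown in monoculture (density kept equal with unlabelled cancer cells) in 384-well plates in FluoroBrite medium, treated with one of 42 anticancer drugs at 0.1, 1, 10 or 100 uM. JC-1 red fluorescence (mitochondrial integrity, surrogate of apoptotic death) was read by plate reader every 8 h for 72 h. Values are normalised to each well's pre-drug value, with background from alamethicin. The stock of one drug was tenfold lower, so its dose labels may be too high. Monoculture values are repeated alongside each fibroblast plate and are averaged here.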

Hs578T = assay: as above; details: coculture fibroblast: none (monoculture)
Procedure: as §1

Nc1ccn([C@@H]2O[C@H](CO)[C@@H](O)C2(F)F)c(=O)n1 [Gemcitabine]
relative JC-1 red fluorescence
Details	8 h	16 h	24 h	32 h	40 h	48 h	56 h	64 h	72 h
HCC1143, 0.1 µM	0.9152	0.866	0.775	0.719	0.654	0.609	0.578	0.56	0.529
HCC1143, 1 µM	0.8687	0.76823	0.7024	0.6411	0.596	0.545	0.5037	0.472	0.458
HCC1143, 10 µM	0.88937	0.80659	0.7214	0.6672	0.625	0.5936	0.5678	0.55096	0.54
HCC1143, 100 µM	0.89815	0.813	0.753	0.714	0.668	0.631	0.618	0.607	0.5954
Hs578T, 0.1 µM	0.8463	0.739	0.629	0.546	0.484	0.442	0.393	0.379	0.365
Hs578T, 1 µM	0.8293	0.7103	0.705	0.639	0.598	0.579	0.559	0.571	0.568
Hs578T, 10 µM	0.8254	0.743	0.657	0.603	0.546	0.511	0.47	0.45	0.4335
Hs578T, 100 µM	0.831	0.707	0.688	0.624	0.575	0.56	0.54	0.545	0.54

CCN(CC)CCNC(=O)c1c(C)[nH]c(/C=C2\C(=O)Nc3ccc(F)cc32)c1C [Sunitinib]
relative JC-1 red fluorescence
Details	8 h	16 h	24 h	32 h	40 h	48 h	56 h	64 h	72 h
HCC1143, 0.1 µM	0.853	0.758	0.7055	0.65874	0.623	0.604	0.586	0.5729	0.5655
HCC1143, 1 µM	0.884	0.798	0.75	0.702	0.664	0.629	0.607	0.586	0.573
HCC1143, 10 µM	0.8419	0.641	0.522	0.436	0.371	0.312	0.272	0.239	0.208
HCC1143, 100 µM	0.316	0.225	0.223	0.202	0.187	0.191	0.18	0.17	0.166
Hs578T, 0.1 µM	0.87	0.744	0.667	0.602	0.537	0.497	0.461	0.448	0.432
Hs578T, 1 µM	0.8145	0.6886	0.656	0.6056	0.5804	0.554	0.5332	0.52	0.508
Hs578T, 10 µM	0.48	0.285	0.248	0.163	0.131	0.114	0.0953	0.0887	0.0748
Hs578T, 100 µM	0.439	0.3	0.31	0.269	0.25	0.261	0.248	0.245	0.238
